Values of other authors in EP0137294A2, “Gonadoliberin and gonadoliberin agonists in the treatment of metabolic diseases due to too small a parathormone level” (HOECHST AKTIENGESELLSCHAFT, priority 1983, dated 1985).
At least one read-out could not be matched to a standard name with certainty.

Settings: intranasal administration; cited from earlier work

**Q.** For CC(C)C[C@H](NC(=O)CNC(=O)[C@H](Cc1ccc(O)cc1)NC(=O)[C@H](CO)NC(=O)[C@H](Cc1c[nH]c2ccccc12)NC(=O)[C@H](Cc1cnc[nH]1)NC(=O)[C@@H]1CCC(=O)N1)C(=O)N[C@@H](CCCNC(=N)N)C(=O)N1CCC[C@H]1C(=O)NCC(N)=O [Gonadoliberin], which Resorptionsrate is on record?
**A.** The Resorptionsrate was 2 - 5%.
